Measurements published in PubChem BioAssay AID1508600 (Functional Genomics Laboratory (NCATS/FGL), 2020).
About 3,700 (7%) of roughly 53,000 sequences were called active.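 How the source made its calls: active means gene knockdowns whose robust z-score for IL-1 alpha signal is at least 2 or at most -2, so actives lie on both sides; inactive means the rest.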 Some of the results follow.

Assay: Components of the Cytosolic LPS Sensing Pathway: Gene Identification via Genome-wide siRNA Screen;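 further: robust z of the log signal after scaling to non-targeting control siRNA wells of the plate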
Conditions: RAW264.7 macrophages, IL-1a HTRF, actives lie on both sides, screened at 100 nM (by protocol), cells primed 5 h with Pam3CSK4 first
Summary of the method: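 Read-out: IL-1a HTRF on supernatant, divided by plate negative-control median ×100, log-transformed and converted to robust z-score. Cells were RAW264.7 given 100 nM siRNA, Pam3CSK4-primed 5 hours, then LipidA-transfected 24 hour.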

z-score, active:
CCACUUCCGAUGAGCCAGATT against Mrps10 -3.31, GGUGGAGAAGCAGAUGCUUTT against Nek2 2.25, GGGUAGGCAAAGUUUUCAATT against 1700029M20Rik 4.63, GGUUCUCUGCCAGUUCUGUTT against Mid1 3.32

z-score, inactive:
GGAAGACUCCUCAUACCUGTT against Ddit4 -0.589, GCAUGCAUCGAUUGUGCGCTT against Scml4 -0.062, GCUACCUCAACAUGGAUGCTT against Pcca 1.16, GGAGAAAACAGGCAAUAGUTT against Prr15 -0.0385, GGCAGCUUUACGAUGUACATT against Lcn2 0.658, CCUUAGACAUCGAAGUAAUTT against Hrh4 -0.00723, GGAAGCAGAGCCCGAAAAATT against Ccdc85b 1.08, GGACACAGAAAAUAUCCCATT against Sct -0.552, GGAAACAAGAGUUGGAUAGTT against Pclo -0.311, GGAUCCUUCCAAAAGGAAATT against Alg3 1.8, GGGAAAAUGUUGAUGCUGATT against Alppl2 -0.393, GGAAACCUCGCAUCAAUUCTT against Rybp 1.57, GGUUUGUGAAAGAUAAUGGTT against Gzmf -0.242, UCAUCGCAACCAUCCACAGTT against Olfr530 0.464, GCUAGGAGACAUUAGCUACTT against Slc13a4 -0.661, GGUUUUACACACUCCAUGATT against Olfr1246 -0.424, GCAACUUGUUAGUGGACUCTT against Olfr620 -1.08, GCAGUUAUGUUAUAGCUGCTT against Ctu2 0.0152, GGACACAAUUGAAAUAGACTT against Slc5a1 -1.73, GGGUUGUCCAAUGUGAAGGTT against Mettl26 0.492, GCGGAAGUCGACCUUUGAUTT against Cd164 -0.238, CGAGAACCGACCAUGCAGUTT against Ndufb11 0.369, GCUUUAAGAAAGAUUGACCTT against Caap1 0.163, GGCAAGAUCUUCAAGUGAATT against Eef1g -0.809, GGUGGCAAACUUCAUUUUATT against Srsf2 -0.431, GGCUGUGUAUUACUGCGCUTT against Vpreb2 -0.236, GCCCUUCAUGCUCAUGAGUTT against Hccs -0.827, CGUUAGUCUGUGAAUGCACTT against Emc10 -0.442, GCGGUCUGUCCCUACUAAUTT against Dnajc4 1.69, GGAACCAAAGUCAAAGGAGTT against Fip1l1 1.75, GCUGAUUAGCCAUGUAAUUTT against Cebpg -0.481, CCCUGUAAGGUUGAUUGUGTT against Oog3 0.535, GGAGGAAGUUGAACUAUUGTT against Brd3 0.07, GGUUCUUGGGCACCAUUAUTT against Olfr786 0.742, GGACAUUUUAUAAAUGGUGTT against Dcaf4 -1.36, GGAACAAAGAUGUCAAACATT against Olfr466 -0.993, GGGCAUUUUUGAGAUGGUUTT against Syngr2 0.19, GGAAUCAAUAAAUGUCUACTT against Cyb561 -1.35, GGAACAUUGAAAGGAUUAATT against Smc3 -1.9, GGCAAAAAUUACCUGUUGATT against Alms1 -0.783, CCGUCACAAUAGUCUCUGATT against Abhd15 0.805, GGAUGGUAGAGUUCCUUUGTT against Lin52 0.616, GCAGGAGUUUAUCAGAGGATT against Prim2 -1.64, GGGAAUUAACCCUAGUGCUTT against B4galt3 -0.33, CGAUUAAAAAGGGACAUAUTT against Grid1 0.946, CGUAAGAAAAAUAGCACAUTT against Ccdc14 1.31, GGCCAACACUAACACAGACTT against Tmem268 -0.357, GGAGAAGAAUAGGAAUGCATT against Anpep -1.78, CCUAAUCUAGAGCAACACATT against Ankrd34c -1.67, GGCAAAAACUGCUGAUCUGTT against Tex9 0.00236, GGGAAGAAACUGUGAUUUUTT against Cbfa2t3 0.963, GGACAAGUGUCAGAGCUGUTT against Mrnip -0.801, GGGUGCUUUUCUGAAAGUATT against Olfr1342 -0.911, CGCUAACUUCCAAGUGCCUTT against Tacstd2 0.529, CACUGCUGUAAUCCCUAUGTT against Olfr1002 0.4, GGCCAACAAUUUGUCUGUCTT against Tg -0.783, GGUCUUCUUAGCUUUUUUUTT against Plppr1 -0.713, GGCCUUGUUUUUAAGUAAATT against Atp12a -0.178, GUGGACUUUUAGCAAUCAGTT against Olfr98 -1.55, GGUUGCUAGAAAAAUGAAGTT against Nipbl -0.593, CGAUUUCGCUGUUACUAAATT against Slc2a3 0.733, CGAGAGGUGAUCUUAGAUUTT against Qsox2 -0.369, GCUGUACAAUAACAGUAUGTT against Gde1 1.06, GGAAGACACAUUUUUCCAUTT against Serpinb9e 0.733
